This note sets out measurements from PMC2362126.

By UniProt entry, the sequences of proteins in these tests, tags left out.
UniProt P34148: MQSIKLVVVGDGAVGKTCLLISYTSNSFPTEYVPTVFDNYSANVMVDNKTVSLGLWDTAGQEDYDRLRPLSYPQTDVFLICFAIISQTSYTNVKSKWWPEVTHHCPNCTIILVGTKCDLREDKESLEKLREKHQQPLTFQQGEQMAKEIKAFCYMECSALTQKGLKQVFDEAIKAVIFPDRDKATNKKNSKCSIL
UniProt P19073: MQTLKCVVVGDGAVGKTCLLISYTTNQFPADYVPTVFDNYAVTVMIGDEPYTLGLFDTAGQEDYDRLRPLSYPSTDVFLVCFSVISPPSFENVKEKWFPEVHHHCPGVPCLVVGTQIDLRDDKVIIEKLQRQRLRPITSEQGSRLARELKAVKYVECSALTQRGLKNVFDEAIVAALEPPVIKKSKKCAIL
UniProt P60953: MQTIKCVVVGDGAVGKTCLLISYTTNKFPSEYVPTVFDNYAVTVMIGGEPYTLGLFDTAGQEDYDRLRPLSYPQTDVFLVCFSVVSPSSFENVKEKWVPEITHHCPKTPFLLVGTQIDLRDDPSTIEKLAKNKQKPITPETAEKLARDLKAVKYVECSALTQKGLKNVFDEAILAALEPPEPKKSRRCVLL
UniProt P61586: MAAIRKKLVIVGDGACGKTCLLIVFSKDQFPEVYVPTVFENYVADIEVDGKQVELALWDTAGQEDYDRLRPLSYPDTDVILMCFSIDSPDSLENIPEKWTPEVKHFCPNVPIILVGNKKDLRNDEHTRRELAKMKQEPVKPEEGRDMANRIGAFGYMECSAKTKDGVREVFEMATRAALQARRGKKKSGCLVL
UniProt O96390: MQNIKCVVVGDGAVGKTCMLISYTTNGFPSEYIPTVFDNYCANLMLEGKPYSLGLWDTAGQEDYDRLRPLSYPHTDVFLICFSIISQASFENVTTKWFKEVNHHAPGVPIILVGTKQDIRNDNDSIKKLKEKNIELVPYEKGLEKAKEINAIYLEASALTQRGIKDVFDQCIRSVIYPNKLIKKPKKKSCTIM
UniProt P34149: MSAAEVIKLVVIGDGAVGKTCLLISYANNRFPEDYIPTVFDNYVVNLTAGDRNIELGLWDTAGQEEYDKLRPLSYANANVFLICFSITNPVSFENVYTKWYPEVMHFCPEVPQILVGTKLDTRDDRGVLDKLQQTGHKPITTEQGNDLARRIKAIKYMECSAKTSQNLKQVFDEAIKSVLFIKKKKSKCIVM

Assay in all cases: two-hybrid; Matchmaker system (Clontech), Y190 yeast; RhoGDIs in pGADT7 or pACT2, Rho GTPases in pGBKT7 or pAS2-1; growth on -Trp/-Leu/-His/+3AT and colony-lift β-galactosidase assays
The target in experiment [1] is T1, D. discoideum RacE, two-hybrid fusion in pAS2-1 (D. discoideum) (UniProt Q23862).
T1 sequence: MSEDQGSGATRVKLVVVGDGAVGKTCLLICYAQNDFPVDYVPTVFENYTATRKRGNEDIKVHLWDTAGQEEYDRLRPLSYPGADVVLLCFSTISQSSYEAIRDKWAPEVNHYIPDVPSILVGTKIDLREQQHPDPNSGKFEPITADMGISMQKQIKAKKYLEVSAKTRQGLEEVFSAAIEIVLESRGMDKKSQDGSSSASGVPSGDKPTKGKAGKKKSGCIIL

The target in experiment [2] is D. discoideum RacB, two-hybrid fusion in pAS2-1 (D. discoideum) (UniProt P34148).
In experiment [3] the target is S. cerevisiae Cdc42, two-hybrid fusion in pGBKT7 (S. cerevisiae) (UniProt P19073).
In experiment [4] the target is human Cdc42, two-hybrid fusion in pAS2-1 (human) (UniProt P60953).
In experiment [5] the target is human RhoA, two-hybrid fusion in pAS2-1 (human) (UniProt P61586).
The target in experiment [6] is D. discoideum RacF1, two-hybrid fusion in pAS2-1 (D. discoideum) (UniProt O96390).
Experiment [7] concerns the target D. discoideum RacC, two-hybrid fusion in pAS2-1 (D. discoideum) (UniProt P34149).

These are yes or no findings as the source states them, for the method shown. For some of these results: A result given as binding can be weak or reduced; the word gives no strength. For some of these results: Where a sequence is shown, tags or fusion partners need not be part of it.

Turning to “Tuber borchii RhoGDI (TbRhoGDI), two-hybrid fusion in pGADT7 (from UniProt A8TLV6)”, the binding entry in experiment [1] was “no binding”; in experiment [2], “no binding”; in experiment [3], “no binding”; in experiment [4], “binds”; in experiment [5], “no binding”; in experiment [6], “no binding”. In addition, the binding entry in experiment [7] was “no binding”.
